# Experimental data taken from patent US20120129818A1, “Compositions and Methods for Treatment of Cardiovascular Disease” (priority 2009, published 2012).
# At least one compound was matched to its structure with a doubt left.
# Key:
# human MPO = molecular target: T1, human MPO (Homo sapiens, UniProt P05164); experiment: Myeloperoxidase (MPO) activity assay with tetramethyl benzidine (TMB) substrate; assay type: biochemical; settings: varying concentrations, OD 650 nm (FIGS. 4 and 5)
# T1 construct: purchased Sigma-Aldrich
# Source text: Various methods of measuring a reduction in MPO activity are known to those of ordinary skill in the art and can be used in accordance with the present invention. For example, in one embodiment, MPO activity can be measured by combining an amount of an MPO enzyme, or a sample containing an MPO enzyme, with H2O2, a tetramethyl benzidine (TMB) substrate, and an MPO inhibitor (e.g., a compound of the present invention), and then measuring the optical density of the resulting product.
# Typically, the reaction mixture (200 μl) contained 20 mU human MPO (Sigma-Aldrich, St. Louis, Mo.), 400 nmol H2O2, 1.6 μmol of TMB, and varying concentrations of methylenedioxyphenyl ferulate (Formula (II)) or ferulylproline (Formula (XVI)).
# The reaction was performed in a volume of 200 μl with 50 mM sodium acetate buffer at pH 5.6. The reaction was initiated by adding MPO and the optical density of the product formed was then read at 650 nm in a microplate reader at various time points.
# [1] = test system: human low-density lipoprotein (LDL); experiment: Cu (II) induced LDL oxidation, conjugated diene formation at 234 nm; assay type: biochemical; settings: 10 and 25 μM compound, 100 μg LDL protein, 5 μM Cu (II), pH 7.4, room temperature (FIG. 6)
# Procedure: To determine the effect of the presently-disclosed compounds on low-density lipoprotein (LDL) oxidation, standard LDL oxidation reactions were carried out in the presence of methylenedioxyphenyl ferulate (FMDP; Formula (II)) and ferulylproline (Formula (XVI). Briefly, the in vitro oxidation reaction of LDL was carried out at room temperature in potassium phosphate buffer, pH 7.4. The reaction mixture contained 100 μg LDL protein and 5 μM Cu (II) with a final volume of 1 mL. The oxidation of LDL was followed by measuring the formation of a conjugated diene at 234 nm for a total of 300 min using a spectrophotometer. The time course of Cu (II) induced LDL oxidation was then performed. […] The increase in the oxidation of LDL in presence of 10 μM and 25 μM ferulylproline was attributed to the formation of Cu (II)-ferulylproline complex which would act as a pro-oxidant of LDL. Oxidation of LDL lipid by Cu (II) mediated oxidation both in the absence of any inhibitor and in the presence of 10 μM and 25 μM of methylenedioxyphenyl ferulate and ferulylproline was performed by monitoring the oxidation for 200 minutes.
# [2] = test system: xanthine/xanthine oxidase; experiment: Superoxide mediated cytochrome c reduction catalyzed by xanthine/xanthine oxidase; assay type: biochemical; settings: different concentrations of inhibitor, 549 nm (FIG. 7)
# Procedure: The reaction mixture contained 250 μL of 5 mM hypoxanthine (1.25 mM final concentration), 100 μL of cytochrome c in buffer, 10 μL of xanthine oxidase enzyme and different concentrations of inhibitor. The final volume was made up to 1 mL with phosphate buffer. The oxidation was monitored by scanning wavelengths between 500 nm to 600 nm with five measurements. The cycle scanning time was 30 seconds.
# [3] = Chlorotaurine formation (HOCl-mediated chlorination of taurine, TNB readout at 412 nm); settings: various concentrations, 37° C. for 10 min, absorption 412 nm (FIG. 8)
# Procedure: Chlorotaurine is formed by the oxidation of taurine by the chlorinating oxidant hypochlorous acid (HOCl), which is formed by MPO-mediated 2-electron oxidation of chloride by H2O2. To determine if the compounds of the present invention were capable of inhibiting the formation of chlorotaurine, a reaction mixture was produced that contained 50 uL of 150 mM taurine, various concentrations of methylenedioxyphenyl ferulate (Formula (II)) or ferulylproline (Formula (XVI)), and 250 μL of hypochlorous acid in sodium phosphate buffer. The mixture was incubated at 37° C. for 10 min followed by addition of 60 μL of 40 mM thionitrobenzoic acid (TNB). The whole solution was made up to 1.5 mL and absorption was measured at 412 nm using a UV-Visible spectrophotometer. […] Furthermore, although both of these compounds react differently toward chlorotaurine oxidation, they seem to show specificity toward MPO inhibition.
# MPO = molecular target: T2, MPO (Homo sapiens, UniProt P05164); experiment: Analysis of whether the compounds act as MPO substrates (UV-Visible spectrum, TLC); assay type: biochemical
# T2 sequence (P05164 49-745): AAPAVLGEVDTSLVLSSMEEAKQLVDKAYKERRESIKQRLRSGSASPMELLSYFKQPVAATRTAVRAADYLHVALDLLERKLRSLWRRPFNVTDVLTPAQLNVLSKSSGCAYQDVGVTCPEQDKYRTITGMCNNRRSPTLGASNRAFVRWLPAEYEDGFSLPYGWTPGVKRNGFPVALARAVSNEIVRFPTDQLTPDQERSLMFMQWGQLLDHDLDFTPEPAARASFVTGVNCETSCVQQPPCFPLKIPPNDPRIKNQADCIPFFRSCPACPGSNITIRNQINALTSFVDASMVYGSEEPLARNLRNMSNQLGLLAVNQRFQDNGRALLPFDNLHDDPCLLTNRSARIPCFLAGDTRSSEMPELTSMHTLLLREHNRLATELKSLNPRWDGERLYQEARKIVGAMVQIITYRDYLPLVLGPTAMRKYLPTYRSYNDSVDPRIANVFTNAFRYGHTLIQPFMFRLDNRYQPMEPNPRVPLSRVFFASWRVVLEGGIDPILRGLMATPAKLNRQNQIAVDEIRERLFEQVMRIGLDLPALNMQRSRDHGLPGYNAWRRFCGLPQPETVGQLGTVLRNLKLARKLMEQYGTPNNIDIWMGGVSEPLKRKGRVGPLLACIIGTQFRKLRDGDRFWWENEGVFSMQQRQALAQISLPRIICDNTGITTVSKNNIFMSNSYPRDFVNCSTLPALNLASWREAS
# Procedure: It is known that MPO acts on a variety of substrates and, as such, it was thought that it may be theoretically possible that methylenedioxyphenyl ferulate (Formula (II)) and ferulylproline (Formula (XVI)) could be acting as MPO substrates and competitively masking the formation of products from the added substrates in the above-described experiments. […] In these experiments, a reaction mixture was produced that contained 720 μL of sodium acetate buffer, 100 μL of 100 mM H2O2, 100 μL of MPO enzyme with added compounds of the present invention, and a total volume made up to 1 mL. Upon analysis of this reaction mixture, however, there was no indication of any colored product even when the reaction mixture contained only the inhibitor and not the MPO substrate. To strengthen this finding, thin layer chromatography (TLC) was run with the MPO assay solution and inhibitor (50% ethylacetate:hexane) and spot identification was done in an iodine chamber.
structure (smiles),measurement,setting,value
COc1cc(/C=C/C(=O)Oc2ccc3c(c2)OCO3)ccc1O [methylenedioxyphenyl ferulate],Inhibition of MPO activity,human MPO,significantly inhibited MPO
same,Effect on Cu (II) induced LDL oxidation,[1],complete inhibition of LDL oxidation
same,Inhibition of superoxide mediated cytochrome c reduction,[2],did not cause significant inhibition
same,Inhibition of chlorotaurine formation,[3],inhibited the reaction
same,Product formation during the MPO reaction by TLC / MPO substrate behaviour,"MPO; MPO assay solution and inhibitor, 50% ethylacetate:hexane, iodine chamber",do not act as an MPO substrate
same,Product formation in UV-Visible spectrum between 200 to 700 nm with and without MPO,"MPO; sodium acetate buffer, H2O2, MPO enzyme, no MPO substrate (FIGS. 9 and 10)",failed to show any product
